# Laboratory results reported in the supplement of paper PMC3334620.
# The full ranking holds about 33,000 sequences; the median of “E-score (-0.5 to 0.5)” is about -8e-05, and the highest 2% start at about 0.23. The list shows a part of the results.
# Target: T1, Nrg2 (UniProt P38082)
# T1 sequence: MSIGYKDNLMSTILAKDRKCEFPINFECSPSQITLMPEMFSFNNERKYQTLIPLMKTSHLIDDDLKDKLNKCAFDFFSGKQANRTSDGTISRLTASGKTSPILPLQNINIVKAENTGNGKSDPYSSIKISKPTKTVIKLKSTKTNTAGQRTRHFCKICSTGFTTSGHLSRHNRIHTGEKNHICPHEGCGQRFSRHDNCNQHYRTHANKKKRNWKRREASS
# Assay: PBM E-score (8-mer binding enrichment) (E-score (-0.5 to 0.5)); higher = stronger / more preferred TF binding
# Conditions: protein concentration: 100 nM; construct: GST-full length
# Method in brief: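 Yeast transcription factors, full-length or as DNA-binding domains, were expressed with a GST tag using PURExpress in vitro transcription/translation. At about 100-200 nM they were applied to universal all-10-mer Agilent arrays, double-stranded by primer extension on fresh or once-stripped slides. Fluorescent anti-GST detected bound protein, and masliner normalised the scans. E-scores for ungapped eight-base words, pooled with reverse complements, came from the Universal PBM Analysis Suite.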
row,Sequence,PBM E-score
1,CCGGCCCG,-0.108
2,GGTATACA,0.0828
3,ATAGGAAC,-0.0698
4,ATACCTTG,0.0746
5,AAACAGAG,0.0858
6,AGGCATAT,-0.0234
7,ACTGCAGG,-0.0912
8,GGGTTCCA,0.0783
9,CTTCAAGC,-0.0747
10,GTGCTATA,0.0796
11,GAGCCCTC,-0.188
12,CAGAGTTA,0.11
13,CCACCCGA,-0.0859
14,ACGATTGA,0.0486
15,CGACCGTA,-0.14
16,CCCATGGA,-0.00741
17,CATTGAAA,0.147
18,ATTCATGG,0.0326
19,AGCTGTAC,0.0126
20,GCCGCTAA,0.00842
21,CGCCAAGA,-0.121
22,ATACATGA,0.00888
23,CAATTCTA,0.087
24,ACCTGCAA,-0.0751
25,AATAGGTA,0.116

row,Sequence,PBM E-score
1,CGACCTTA,0.0761
2,AAGTTCTA,-0.0565
3,CGGTGGCA,-0.286
4,TTATTGAA,0.042
5,AAAACCAT,0.137
6,AGATGTGC,0.115
7,AGCACCAG,-0.0385
8,TAACGAGA,0.0391
9,GCACCACA,-0.00115
10,CCGCCTCC,-0.336
11,AACTTACT,-0.128
12,GGAATGCC,0.11
13,ACGCCAGG,-0.0644
14,CAGCTAAC,-0.187
15,CCGATGTC,0.00418
16,TCATCTCA,0.191
17,ATATCTTA,0.12
18,ACACTGGG,-0.0843
19,GCCGGCAA,0.123
20,ACCTAGGA,0.0462
21,CTATTGTA,0.133
22,AAAGGGAG,-0.186
23,CGCTTGTA,0.199
24,GAGTCACC,-0.167
25,AACACCAT,0.0524

row,Sequence,PBM E-score
1,ACAAAAAT,0.159
2,ATCTTAGC,-0.0494
3,AGAAGTGA,-0.0836
4,CGGCGTAC,-0.104
5,GCATTAAA,0.136
6,ATAACGCG,0.173
7,AACGCAAA,0.112
8,CCGAAGGC,-0.274
9,ACTACTCG,0.187
10,AGATGGCC,-0.11
11,GATAGCGC,0.0725
12,GGATGAAA,0.196
13,CTTCTAGC,-0.221
14,CATGGAAC,0.0476
15,CTCAAGAA,-0.00391
16,CCACTGCC,0.0288
17,AAGCCGCC,-0.219
18,AGAGTACC,0.132
19,ACTAAGGG,0.0502
20,AATACCTC,0.0799
21,CTTCTCTA,-0.137
22,AGCAGTTA,-0.0173
23,GATCTGCA,-0.0673
24,TAATTTAA,0.0924
25,AGAACCAT,-0.0163

row,Sequence,PBM E-score
1,CATAGTCC,0.0437
2,TCTTCTAA,-0.0126
3,ACGCAAGC,0.0098
4,ATGATCAC,0.156
5,AAACCTAC,0.0887
6,ACCCGCAG,0.0663
7,ACGCCGCT,-0.0596
8,CACCGTGA,-0.113
9,GGTCATTA,-0.088
10,AACATATT,0.0545
11,ACGGAAGT,-0.0291
12,CGGATGTC,0.00798
13,ACATCAGG,0.153
14,CCGTCACC,-0.151
15,ATGCCATA,0.0783
16,AACGTTCT,0.129
17,AGAGGGCT,-0.242
18,ATTTAGGG,0.141
19,AGGATACT,-0.068
20,ACGCATTA,-0.0837
21,ACCAGCAT,0.0206
22,AGAATAGA,0.0121
23,TCAGTTCA,0.0522
24,ATTGTTTG,0.18
25,ATGGGCAA,0.0718

row,Sequence,PBM E-score
1,TGGGCACA,-0.0208
2,ACTTGCAA,0.116
3,AAGGTAAC,0.129
4,AACCCTGT,0.244
5,GTGTGAAC,0.0759
6,GATTGCTA,-0.159
7,AGCCCTTG,-0.0993
8,TAGATCGA,0.0965
9,GGGAGAAC,-0.189
10,CCGATGGC,-0.0549
11,CACTATCC,-0.02
12,AAAAAAGC,0.00716
13,GATCGGCA,-0.0228
14,TGCTAAAA,-0.17
15,CAATTCTG,-0.0606
16,CGCGACCC,0.0836
17,TCGACAGA,-0.105
18,AATGGTCA,0.0742
19,GCTGAATA,0.141
20,GCTGGCCA,0.0316
21,ACAGACAA,0.224
22,CCTACTTA,0.0393
23,AAGTCTCT,-0.312
24,AGACGGGC,-0.088
25,CAATGTGA,0.113

row,Sequence,PBM E-score
1,GAGCTCAC,0.0363
2,ATCTACAG,0.135
3,TATGCGGA,0.0715
4,ACGGATTC,0.0174
5,CGCACGCA,-0.0894
6,AGCTCGGA,-0.107
7,GTATTTCA,0.0415
8,CAGGGACA,0.371
9,CACCCCAC,0.217
10,AGTGTTGG,0.077
11,TAGGAAGA,-0.255
12,CGAGTACG,-0.117
13,CAACTACG,0.0137
14,CGTTGTTA,0.092
15,GAGGCGCC,-0.0536
16,CGCTGGGA,-0.178
17,AAATATCG,0.0888
18,TCTGTAAA,-0.162
19,ACCAAGGT,-0.0285
20,ACCATCCT,-0.0947
21,TGCTAGAA,-0.166
22,CTGAGGCC,-0.0663
23,GTCTCCTA,-0.163
24,GATAATGC,0.121
25,ATTAACTG,0.203

# Reformatted tab-delimited: part of the list above
row	Sequence	PBM E-score
1	CCGGCCCG	-0.108
2	GGTATACA	0.0828
13	CCACCCGA	-0.0859
14	ACGATTGA	0.0486
22	ATACATGA	0.00888
1	CGACCTTA	0.0761
2	AAGTTCTA	-0.0565
13	ACGCCAGG	-0.0644
14	CAGCTAAC	-0.187
15	CCGATGTC	0.00418
16	TCATCTCA	0.191
17	ATATCTTA	0.12
18	ACACTGGG	-0.0843
24	GAGTCACC	-0.167
3	AGAAGTGA	-0.0836
8	CCGAAGGC	-0.274
10	AGATGGCC	-0.11
11	GATAGCGC	0.0725
14	CATGGAAC	0.0476
18	AGAGTACC	0.132
23	GATCTGCA	-0.0673
1	CATAGTCC	0.0437
12	CGGATGTC	0.00798
14	CCGTCACC	-0.151
17	AGAGGGCT	-0.242
21	ACCAGCAT	0.0206
23	TCAGTTCA	0.0522
3	AAGGTAAC	0.129
4	AACCCTGT	0.244
5	GTGTGAAC	0.0759
6	GATTGCTA	-0.159
8	TAGATCGA	0.0965
9	GGGAGAAC	-0.189
12	AAAAAAGC	0.00716
13	GATCGGCA	-0.0228
17	TCGACAGA	-0.105
20	GCTGGCCA	0.0316
3	TATGCGGA	0.0715
7	GTATTTCA	0.0415
9	CACCCCAC	0.217
11	TAGGAAGA	-0.255
12	CGAGTACG	-0.117
17	AAATATCG	0.0888
19	ACCAAGGT	-0.0285
21	TGCTAGAA	-0.166
23	GTCTCCTA	-0.163

# Next part.

row,Sequence,PBM E-score
1,GATCGGAA,-0.0186
2,GAATAAGC,-0.0376
3,ACAAAGAA,0.0391
4,AATCAGCT,0.164
5,CAAACCCC,0.00373
6,CGTGACGC,-0.0911
7,AACAGCGT,-0.101
8,CGAGGCAA,0.103
9,CGAATAAA,0.153
10,TCACTCGA,0.0272
11,ATCGGTAA,-0.0755
12,AGGCACAG,-0.0629
13,AGCCTTGA,-0.061
14,CTAGGGTC,0.188
15,CACGGGCG,-0.0461
16,CAGACACA,0.0428
17,AGTTGCTA,0.109
18,GGAGGCAC,-0.246
19,CACCTGTA,-0.0981
20,ACTTACCG,-0.019
21,ATACAAAG,0.0955
22,ACACAACG,0.0761
